These are yes or no findings as the source states them, for the method shown. In cells and extracts the contact can be indirect. Here binding means that the protein was enriched with, or labelled near, the bait; the list need not be complete. Where a sequence is shown, tags or fusion partners need not be part of it.
B1: Cct4, chaperonin-containing T-complex delta subunit (protein, UniProt P50999 1-527)
chain: MSKAATVPVAFQDREKPQEVRLSNIMAARSVADAIRTSLGPKGMDKMIQTGKGEVILTNDGATILKHLSVLHPAAKMLVDLSAAQDVEAGDGTTSVVILAGSMLACAEKLLKKGIHPTVIAESFQRAAGFTVDCMKENALAIELSDRESLLRAATTSLNSKIVSQYSNLLAPIAVDAVLKVIDPRVATNVDLKDIRIVKKLGGIIDDTELIPGLALTQTAVKSAGGPTRIEKANIALIQFQLSPPKPDMENQVVVNDYRQMDKILKEERQYLLNMCKKIKKAGANVILIQKSILRDAVNDLALHFLAKLKIMVIKDIERDEVEFICKSTGCKPIADIESFAEDKLGHADLVEETSSSGEKIVKFSGVKNAGKTVSILCRGANLLTLEEAERSLHDALCVIRCLVKQRALIAGGGSPEIEAAQRLLEHARQLEGREAICIRAFSEALEIIPVTLAENAGLNAIQVVTELRSRHANGEKTAGINVRKGIVTNILEENVLQPLLVNISAIQLAAETTKMIMKIDDITLAR
B2: Rpt4, 19S proteasome regulatory subunit (protein, UniProt O74445 1-388)
chain: MSERDTALEKYKSYLLQHREWDSKLKDLRFGNRDLVKKYDKTEDDIKSLQSVGQIIGEVLKQLDSERFIVKASSGPRYVVGCRNNVDQSHLVQGVRVSLDMTTLTIMRILPREVDPLVYNMSIEDPGDISFAGVGGLNEQIRELREVIELPLKNPELFLRVGIKPPKGVLLYGPPGTGKTLLARAVAASLGVNFLKVVSSAIVDKYIGESARIIREMFGYAKEHEPCVIFMDEIDAIGGRRFSEGTSADREIQRTLMELLNQMDGFDYLGQTKIIMATNRPDTLDPALLRPGRLDRKIEIPLPNEVGRMEILKIHLEKVSKQGEIDYEALVKLTDGTNGADLRNVVTEAGFIAIKEDRDYVIQSDLMSAARKVADLKKLEGTIDYQKL
B3: Hip4 (SPBC947.08c), Hpc2-related protein (protein, UniProt O43083 1-338)
chain: MSLLSGDQRIICLEIPLQGKENVHINFAKEVEKLYGPSVQENSKKNDLSDSADSEGESTHVDEQQAANGAADGTQTIKKKKRKRRYADEYYDRTDPFIDDAELYIEEKAAATKDGFFVFSGPLVAEGDTVKIERSKKTKKKKKTSLSNATHPAPAVSAVVASADASFDDSRDIESEDEQPLRTLSIEMAAKNALKEAKRENAKVPKDVSKKEAKTTKSKEKATKKTSSSVPKQSTGENTKKAVKLETPLTSTPPIPPLSEPKHSPATVNEHISPPSALTNPSTEELKPSTSLPIDQGNASVVSKPTQQVSIVLSQNASLPVDEHQAEPEKSIPTSSIP
B4: Rpt1, 19S proteasome regulatory subunit (protein, UniProt O42931 1-438)
chain: MPPKEDWEKYQKPVDTEEENDKNPPPLDEGDIELLKSYATGPYARELAAIKEDTEAVLKRINDTVGIKESDTGLAPISFWDVAADRQRMSEEQPLQVARCTKIIENEQSAEKNAYVINLKQIAKFVVSLGERVSPTDIEEGMRVGCDRNKYAIQLPLPPKIDPSVTMMQVEEKPDVTYGDVGGCKEQIERLREVVELPLLSPERFVKLGIDPPKGIMLYGPPGTGKTLCARAVANRTDATFIRVIGSELVQKYVGEGARMVRELFEMARTKKACIIFFDEIDAIGGARFDDGAGGDNEVQRTMLELITQLDGFDPRGNIKVLFATNRPNTLDEALMRPGRIDRKVEFGLPDLEGRAHILRIHAKSMAIDKDIRWELIARLCPSQTGAELRSVCTEAGMFAIRARRRVATEKDFLDAVQKVVKGNQKFSSTADYMNMSS
B5: Ths1, threonine-tRNA ligase (protein, UniProt P87144 1-703)
chain: MSAAAVKGVQASLDNLSLEIPFIQHRLDLFDKLQKEYKESLATKPREEIDITLPDGKVIKGTSWETTPISIAASISKGLADRVTVAIVNGEPWDLTRPLEASCTLKLCDFNDPEGKRVFWHSSAHILGEATELSFHCHLCIGPPTDEGFFYEMGIDNGRVITNDDYSSIESYAKQAIKQKQPFERLVISKEGLLEMFRYNKYKQYIIQTKIPDGASTTVYRCGPLIDLCTGPHVPHTGRIKSFAVTKNSSSYFLGDAKNDSLQRVYGISFPDNKQMQEYKTFLAEAAKRDHRKIGRDQELFFFNEISPGSCFFLPHGARIYNTLLKYMRYQYSKRGYQEVITPNMYNVNLWKTSGHWNNYSENMFSFDIEKEKYALKPMNCPGHCVMFKSRDRSYRDLPWRVADFGVLHRNEFSGALSGLTRVRRFQQDDAHIFCTPDQVRSEIEGCFDFLKEVYGTFGFTFHLELSTRPEEKYLGDLATWDKAEAQLKAALDASGYKWELNAGDGAFYGPKIDITVFDALKRQHQCATIQLDFQLPERFQLEFHAPASAEEAKESGNNNKYTRPVMVHRAILGSLERMIAILTEHYAGKWPFWMSPRQVCIIPVSAAAYNYADKVHNILSEADIFVDTDKSDNTLPKKIRNAQLAQYNFIFVVGAEEESTNSVNVRNRDDPKKQSKGSTVAVEEVVKKLLKLKESKSLINDL
B6: Cts1, CTP synthase (protein, UniProt O42644 1-600)
chain: MKYVLVSGGVISGIGKGVIASSTGLLLKTLGLKVTSIKIDPYMNIDAGTMSPLEHGEVFVLNDGGEVDLDLGNYERYLNVTLTHDNNITTGKVYSNVIQKERRGDYLGKTVQIVPHVTNEIQDWVERVARIPVDQSGEEPDVCIVELGGTVGDIESAAFVEAMRQFQFRVGHENFVSIHVSLVPVINGEQKTKPTQQAIRDLRSLGITPDLIACRCKQPLEKSVIDKISLFCHVGPEQVLAVHDVSSTYHVPQLLEDKLLEYLKIRFALDKISVSRELALAGENMWSSWKHLTQGYDHLFKKVTIVLVGKYTHLQDSYISVIKALEHSAMRCGRKLDLQWVEASHLEASTNTSDPLSYHKAWHLVCSANGILVPGGFGSRGVEGMIAAAKWARENNTPYLGICLGMQVAVIEFARSVCGIEGAFSEEFDKECENNVVVYMPEIDKDKLGGTMRLGLRPTFFQPNSEWSKLRKLHKMVDEVLERHRHRYEINPAFVSRLEQGGISFIGKDERGERMEIIEKRDHPYFVGVQYHPEYLSKPLKPSPPIFGLVAASAGLLDEFIQSGEEVEWSNFSHFNAESALADMNDSVEVTEEATVVTIS
B7: Rpt3, 19S proteasome regulatory subunit (protein, UniProt O74894 1-389)
chain: MNSTEEIDLYNRWKALERQLEMLDLQEGFIKEDCKSLKRELIRAQEEVKRIQSVPLVIGQFLEAIDQNTAIVGSTTGSNYVVRILSTLDRELLKPSASVALQRHSNALVDILPPEADSSISMLRPDERPDVSYADVGGLDVQKQEVREAVELPLTQGDLYRQIGIDPPRGVLLYGPPGTGKTMLVKAVANSTAANFIRVVGSEFVQKYLGEGPRMVRDVFRMARENAPAIIFIDEIDAIATKRFDAQTGADREVQRILIELLTQMDGFDQGANVKVIMATNRADTLDPALLRPGRLDRKIEFPSYRDRRQRRLVFQTITAKMLLSPEVDLDTFIMRPDASSGAQIAAIMQDAGLLAVRKSRGVILQSDIEEAYARAVKPTDMEQFAFYK

What follows are binders tested against T1, Slm9-3XFLAG (S. pombe) (UniProt O74309) (assay: affinity purification with mass spectrometry; extracts from 5 g of cells expressing Slm9-FLAG, Dynabeads coupled to anti-FLAG M2 antibody for 15 mins, Benzonase treatment, on-bead tryptic digestion, LC-MS/MS; listed proteins found in at least two independent purifications and absent from four control purifications from untagged cells).
T1 sequence: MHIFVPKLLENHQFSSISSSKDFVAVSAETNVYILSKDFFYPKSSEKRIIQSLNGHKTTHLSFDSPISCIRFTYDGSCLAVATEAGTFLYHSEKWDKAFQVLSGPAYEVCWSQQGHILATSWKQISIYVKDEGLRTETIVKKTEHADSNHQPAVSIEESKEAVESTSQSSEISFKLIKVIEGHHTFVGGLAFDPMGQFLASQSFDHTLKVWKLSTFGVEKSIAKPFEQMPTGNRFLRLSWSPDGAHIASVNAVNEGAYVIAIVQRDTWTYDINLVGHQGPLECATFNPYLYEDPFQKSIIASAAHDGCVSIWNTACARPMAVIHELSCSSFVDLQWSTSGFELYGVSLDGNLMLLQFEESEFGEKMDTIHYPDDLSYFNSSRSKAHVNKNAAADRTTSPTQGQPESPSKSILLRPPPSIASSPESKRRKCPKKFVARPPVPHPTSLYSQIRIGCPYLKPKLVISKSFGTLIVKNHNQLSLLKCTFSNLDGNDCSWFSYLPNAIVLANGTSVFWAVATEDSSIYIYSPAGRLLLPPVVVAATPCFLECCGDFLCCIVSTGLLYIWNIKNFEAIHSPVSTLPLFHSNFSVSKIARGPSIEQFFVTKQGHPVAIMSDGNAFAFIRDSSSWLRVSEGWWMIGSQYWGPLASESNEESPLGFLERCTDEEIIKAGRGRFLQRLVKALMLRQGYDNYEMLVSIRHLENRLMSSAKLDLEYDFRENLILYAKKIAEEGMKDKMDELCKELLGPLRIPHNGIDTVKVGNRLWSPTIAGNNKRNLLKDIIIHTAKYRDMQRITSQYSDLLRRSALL

binding, binds:
B1
B2
B3
B4
B5
B6
B7
